According to PMC1874184 (Environmental Health Perspectives, 2005):

Molecular target: ER-like binding site (specific [3H]-E2 binding)
Assay: Competitive displacement of specific [3H]-E2 binding in gonad cytosolic extracts
Details: read-out: IC50, displacement of specific [3H]-E2 binding; 24 nM [3H]-E2, 18 hr incubation, n = 3

With `CC/C(=C(\c1ccccc1)c1ccc(OCCN(C)C)cc1)c1ccccc1` [Tam, tamoxifen] the IC50 was 1.47 µM.
